No constants are given. Whether binding was seen depends on the method and setting. In cells and extracts the contact can be indirect. Some entries that bind do so weakly or less than the wild type.
Target: SP1-Flag (UniProt Q01714)
Assay: co-IP; HEK-293T cells transfected with the overexpression plasmids (SP1-Flag, HDAC5-Myc, ABCB1-HA); native lysis buffer; protein A/G magnetic beads; Western blot with Flag, Myc and HA antibodies

Chains of the proteins cited; added tags and fusions are not shown.
UniProt Q01714: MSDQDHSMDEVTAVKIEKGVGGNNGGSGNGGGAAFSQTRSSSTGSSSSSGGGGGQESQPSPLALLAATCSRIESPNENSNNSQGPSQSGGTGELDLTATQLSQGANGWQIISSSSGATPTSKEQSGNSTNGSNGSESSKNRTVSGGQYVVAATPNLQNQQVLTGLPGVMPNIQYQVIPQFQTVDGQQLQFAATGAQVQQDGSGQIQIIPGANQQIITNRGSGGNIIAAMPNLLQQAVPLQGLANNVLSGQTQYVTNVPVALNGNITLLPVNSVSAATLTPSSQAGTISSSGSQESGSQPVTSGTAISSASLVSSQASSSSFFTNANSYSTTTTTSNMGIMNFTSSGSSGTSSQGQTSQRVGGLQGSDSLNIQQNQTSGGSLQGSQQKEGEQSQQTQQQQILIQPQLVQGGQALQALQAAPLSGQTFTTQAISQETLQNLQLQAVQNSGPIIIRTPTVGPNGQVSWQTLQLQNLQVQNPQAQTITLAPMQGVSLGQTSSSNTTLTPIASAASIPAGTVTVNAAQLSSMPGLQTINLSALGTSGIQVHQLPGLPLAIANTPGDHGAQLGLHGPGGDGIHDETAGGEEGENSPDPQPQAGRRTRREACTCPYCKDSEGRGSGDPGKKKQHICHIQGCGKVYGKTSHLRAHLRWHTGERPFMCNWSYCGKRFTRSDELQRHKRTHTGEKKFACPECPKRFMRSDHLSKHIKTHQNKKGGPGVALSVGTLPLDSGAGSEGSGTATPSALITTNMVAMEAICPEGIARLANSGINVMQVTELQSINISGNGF
UniProt P43245: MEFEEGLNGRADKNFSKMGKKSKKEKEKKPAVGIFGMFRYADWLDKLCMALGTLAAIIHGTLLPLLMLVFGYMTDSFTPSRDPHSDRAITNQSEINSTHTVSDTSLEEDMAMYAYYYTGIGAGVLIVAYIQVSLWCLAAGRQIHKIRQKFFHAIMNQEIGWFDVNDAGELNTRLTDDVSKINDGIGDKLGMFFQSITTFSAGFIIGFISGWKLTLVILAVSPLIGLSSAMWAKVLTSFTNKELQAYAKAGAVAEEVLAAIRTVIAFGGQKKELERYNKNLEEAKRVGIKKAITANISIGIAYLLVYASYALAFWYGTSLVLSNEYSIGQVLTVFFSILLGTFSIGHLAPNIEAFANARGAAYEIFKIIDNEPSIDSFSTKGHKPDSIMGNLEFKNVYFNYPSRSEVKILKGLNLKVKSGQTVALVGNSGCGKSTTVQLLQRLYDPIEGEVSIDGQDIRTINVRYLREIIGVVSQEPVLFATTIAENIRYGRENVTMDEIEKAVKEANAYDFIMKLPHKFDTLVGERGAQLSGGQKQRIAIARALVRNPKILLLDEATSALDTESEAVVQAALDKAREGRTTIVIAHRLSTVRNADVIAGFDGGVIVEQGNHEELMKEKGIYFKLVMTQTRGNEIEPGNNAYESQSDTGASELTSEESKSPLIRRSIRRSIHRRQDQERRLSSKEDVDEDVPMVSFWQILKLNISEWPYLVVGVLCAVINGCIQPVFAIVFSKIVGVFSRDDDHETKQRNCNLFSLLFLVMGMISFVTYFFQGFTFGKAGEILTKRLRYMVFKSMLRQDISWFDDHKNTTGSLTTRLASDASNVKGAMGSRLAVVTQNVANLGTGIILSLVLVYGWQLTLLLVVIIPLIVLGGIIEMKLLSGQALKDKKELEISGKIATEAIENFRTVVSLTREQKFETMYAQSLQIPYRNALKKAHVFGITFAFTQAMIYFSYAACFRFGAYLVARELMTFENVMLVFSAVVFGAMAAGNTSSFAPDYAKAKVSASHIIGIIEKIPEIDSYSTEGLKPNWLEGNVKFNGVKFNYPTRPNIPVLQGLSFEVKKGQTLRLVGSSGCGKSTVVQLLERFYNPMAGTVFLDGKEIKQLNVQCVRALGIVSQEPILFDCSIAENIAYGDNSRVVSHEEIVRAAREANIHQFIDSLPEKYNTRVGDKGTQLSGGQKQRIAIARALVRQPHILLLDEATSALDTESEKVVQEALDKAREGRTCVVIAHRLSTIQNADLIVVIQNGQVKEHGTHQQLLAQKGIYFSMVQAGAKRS

ABCB1-HA (from UniProt P43245 1-1277)
binding: binds
